Source: PubChem BioAssay AID662 (National Center for Advancing Translational Sciences (NCATS), 2007)
Values joined by “and” are separate entries in the source; they are usually repeats but may differ in a detail not shown here. Equal entries are not always repeated. The list shows a part of the results. Further columns of the screen follow, without active or inactive calls. Most of these compounds were active or inconclusive in the main read-out, so they are no random draw. Potencies come from curve fits of mixed quality, noted in brackets.

experiment: Cell signaling CRE-BLA (Fsk stim); conditions: CHO CRE-bla reporter (cAMP response element driving beta-lactamase), forskolin EC10, beta-lactamase ratio; measured here: 460 nm blue channel
How it was run: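 AC50 values, positive or negative, reflect shifts in EC10 NKH 477-induced CRE-bla reporter activity in CHO cells. Incubation lasted 3 h at 37 °C before CCF4 substrate (2 h, room temperature) and ratiometric 460/530 nm reading.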

Row | Structure (SMILES) | AC50
1 | CN1CCN(c2ncnc3ccc(-c4ccccc4C(F)(F)F)cc23)CC1 | 12.6 µM [rising, partial curve]
2 | COc1ccc(-c2nnc(CSc3nc4ccccc4c(=O)n3CC3CCCO3)o2)cc1OC (stereo not drawn) | 0.631 µM [rising, full curve]
3 | COc1cc(C(=O)Nc2ccccc2N2CCN(S(C)(=O)=O)CC2)cc(OC)c1OC | 12.6 µM [rising, partial curve]
4 | CCOC(=O)Nc1cc(OCC)c(NC(=O)C2CC2)cc1OCC | 12.6 µM [rising, single point]
5 | CCc1c2c(nc3ccc(OC)cc13)COC2 | 10 µM [rising, partial curve]
6 | O=c1c(-c2ccc(Cl)cc2)nc2cnc(N3CCNCC3)nc2n1Cc1ccc(F)cc1 | 1.58 µM [rising, full curve]
7 | c1ccc(CSCCc2ccncc2)cc1 | 2.51 µM [rising, single point]
8 | N#Cc1cc2c(nc1SCc1ccccc1)CCCC2=O | 12.6 µM [rising, single point]
9 | CCOC(=O)C1CCCN(C2CC(=O)N(c3cccc(C(F)(F)F)c3)C2=O)C1 (stereo not drawn) | 12.6 µM [falling, single point]
10 | CCNc1cc(=O)n(C)c(=O)n1C | 12.6 µM [rising, single point]
11 | NCCCCCCNS(=O)(=O)c1cccc2ccccc12 | 31.6 µM [rising, single point]
12 | CCCc1[nH]nc2c1C(CCc1ccccc1)C(C#N)=C(N)O2 (stereo not drawn) | 0.251 µM [falling, full curve]
13 | O=C(Nc1nc2ccccc2s1)C1CCCN1S(=O)(=O)c1ccc(Cl)cc1 (stereo not drawn) | 15.8 µM [falling, partial curve]
14 | COc1cc2c(cc1NC(C)=O)CCCC2 | 0.00398 µM [falling, full curve]
15 | Cc1ccc(Cn2nnc3c(=O)n(CC(=O)NCc4ccco4)cnc32)cc1 | 0.0794 µM [falling, full curve]
16 | Cn1c(=S)[nH]c2cccnc21 | 25.1 µM [rising, single point]
17 | O=C(CCc1ccc(CCC(=O)c2cccs2)s1)c1cccs1 | 0.794 µM [falling, partial curve]
18 | Cc1c(C#N)c2ncnc(N)c2n1-c1ccccc1 | 12.6 µM [falling, partial curve]
19 | COc1nc(N2CCOCC2)nc(-n2cccc2)n1 | 10 µM [rising, single point]
20 | c1ccc2oc(SCc3cn4ccccc4n3)nc2c1 | 12.6 µM [rising, single point]
21 | CC1CCN(C(=O)Cn2c(=O)n(Cc3ccc4c(c3)OCO4)c(=O)c3ccccc32)CC1 | 0.631 µM [falling, partial curve]
22 | Cc1ccc(S(=O)(=O)NC2OC(=O)C(Cl)=C2Cl)cc1 (stereo not drawn) | 25.1 µM [falling, single point]
23 | Cc1c(Br)cc(C(=O)NCCCN2CCOCC2)c(C)c1C | 0.00398 µM [falling, full curve]

Four entries from above, reformatted:
Row	Structure (SMILES)	AC50
10	CCNc1cc(=O)n(C)c(=O)n1C	12.6 µM [rising, single point]
11	NCCCCCCNS(=O)(=O)c1cccc2ccccc12	31.6 µM [rising, single point]
12	CCCc1[nH]nc2c1C(CCc1ccccc1)C(C#N)=C(N)O2 (stereo not drawn)	0.251 µM [falling, full curve]
13	O=C(Nc1nc2ccccc2s1)C1CCCN1S(=O)(=O)c1ccc(Cl)cc1 (stereo not drawn)	15.8 µM [falling, partial curve]

(more compounds)

Row | Structure (SMILES) | AC50
24 | O=C(CSc1nnc(-c2ccccn2)n1Cc1ccco1)c1ccc(-c2ccccc2)cc1 | 25.1 µM [falling, partial curve]
25 | C=CCc1c(C)nc(SCC(=C)C)[nH]c1=O | 0.631 µM [falling, full curve, poor fit]
26 | COC(=O)C1CCN(C(c2cc(OC)c(OC)c(OC)c2)c2sc3nc(C)nn3c2O)CC1 (stereo not drawn) | 12.6 µM [rising, partial curve]
27 | N#CCCn1c(=O)c(-c2cccs2)nc2cnc(N3CCNCC3)nc21 | 10 µM [rising, partial curve]
28 | O=C(c1ccc2c(c1)OCO2)N1CCCCC1 | 3.16 µM [rising, partial curve, poor fit]
29 | CCOC(=O)N1CC=C2C(C#N)=C(N)C(C#N)(C#N)[C@H](c3ccc(OC(C)C)c(OCC)c3)[C@H]2C1 | 10 µM [rising, partial curve, poor fit]
30 | COc1ccc(S(=O)(=O)Cc2ccc(C(=O)N3CCN(c4ccc(Cl)cc4)CC3)o2)cc1 | 25.1 µM [falling, single point]
31 | COc1ccc(C2C(C(=O)N3CCN(C)CC3)c3ccccc3C(=O)N2C2CCCCC2)cc1 (stereo not drawn) | 0.794 µM [falling, full curve, poor fit]
32 | O=C(Nc1nc(-c2cccs2)cs1)c1ccc(S(=O)(=O)N2CCCC2)cc1 | 6.31 µM [falling, partial curve]
33 | CCOC(=O)c1cccc(N2C(=O)c3ccccc3S2(=O)=O)c1 | 12.6 µM [rising, partial curve]
34 | Cc1ccccc1Nc1ncnc2c1cnn2-c1ccccc1 | 10 µM [rising, partial curve]
35 | COc1ccc(Br)cc1S(=O)(=O)N1CCOCC1 | 3.16 µM [falling, single point]
36 | COc1cc(C2NC(=O)NC(c3ccccc3)=C2C(C)=O)ccc1OCC(=O)O (stereo not drawn) | 12.6 µM [rising, partial curve]
37 | Cc1ccc(CNC(=O)C2c3ccccc3C(=O)N(C)C2c2c[nH]c3ccccc23)o1 (stereo not drawn) | 0.0251 µM [falling, full curve, poor fit]
38 | Cc1ccc(-c2nnc(N3CCCCC3)c3ccccc23)cc1S(=O)(=O)N1CCN(C)CC1 | 10 µM [rising, partial curve]
39 | CCOC(=O)c1ccc(N2C(=O)CC(N3CCC(O)(c4ccc(Cl)cc4)CC3)C2=O)cc1 (stereo not drawn) | 0.0126 µM [falling, full curve, poor fit]
40 | CC(=O)CC1(C)OC(N)=C(C#N)C1(C#N)C#N (stereo not drawn) | 12.6 µM [falling, partial curve]
41 | CCC(CC)C(=O)Nc1nnc(SCC(=O)N2CCN(c3ccccc3OC)CC2)s1 | 3.16 µM [falling, single point]
42 | COc1ccc(-n2nnnc2SCC(=O)NCc2ccco2)cc1OC | 20 µM [rising, single point]
43 | CCOC(=O)c1c(N)nn(C(=O)C(C)C)c1-c1ccccc1 | 12.6 µM [rising, single point]
44 | O=C(O)C1CCN(Cc2cnn(-c3ccccc3)c2-n2cccc2)CC1 | 12.6 µM [falling, partial curve, poor fit]
45 | Cc1nc2sccn2c1-c1nc(-c2cc3ccccc3o2)cs1 | 10 µM [rising, partial curve]
46 | O=C(Cc1ccc(Cl)cc1)Nc1ccc(N2CCN(C(=O)c3ccco3)CC2)c(Cl)c1 | 10 µM [falling, single point]

Row | Structure (SMILES) | AC50
47 | O=C(Cn1cccc1)Nc1ccc(OC(F)(F)F)cc1 | 0.00631 µM [falling, full curve, poor fit]
48 | COc1cc(Cn2c(N)c(C#N)c3nc4ccccc4nc32)cc(OC)c1 | 10 µM [rising, partial curve]
49 | N#CC(C(=O)NC1CC1)c1nc2ccccc2nc1N1CCCC1 (stereo not drawn) | 6.31 µM [rising, partial curve]
50 | Cc1ccc(N2CC(C(=O)Nc3nnc(C)s3)CC2=O)cc1 (stereo not drawn) | 2 µM [rising, partial curve]
51 | O=C1Cc2c([nH]c3ccc(Br)cc23)-c2ccccc2N1 | 7.94 µM [falling, full curve] and 5.01 µM [falling, partial curve]
52 | Cn1c(=O)oc2cc(S(=O)(=O)N3CCC(C(=O)N4CC=C(c5ccccc5)CC4)CC3)ccc21 | 10 µM [falling, partial curve]
53 | Cc1cccc(CNc2ncncc2-c2cccc(NS(C)(=O)=O)c2)c1 | 25.1 µM [rising, single point]
54 | CCOC(=O)Nc1oc2ccccc2c(=O)c1CN1CCOCC1 | 12.6 µM [rising, partial curve]
55 | CCOC(=O)c1cnc2c(C)c(Cl)ccc2c1N1CCOCC1 | 3.16 µM [rising, partial curve]
56 | O=C(Nc1ccc2c(c1)OCO2)C1CCN(S(=O)(=O)c2cccs2)CC1 | 3.16 µM [rising, partial curve]
57 | COc1ccccc1NC(=O)c1nnn(CC(=O)Nc2cccc(SC)c2)c1N | 20 µM [falling, single point]
58 | COc1cc(NC(=O)CN2c3cccc4cccc(c34)S2(=O)=O)cc(OC)c1OC | 10 µM [rising, partial curve]
59 | Cn1c(/N=C/c2c(O)ccc3ccccc23)nc2ccccc21 | 0.00316 µM [falling, full curve, poor fit]
60 | Nc1nc(-c2ccccc2)nc(-c2ccccc2O)n1 | 15.8 µM [falling, partial curve]
61 | O=c1c(-c2ccccc2)nc2cnc(Oc3ccccc3)nc2n1C[C@H]1CCCO1 | 10 µM [rising, single point]
62 | Cc1ccc2nsnc2c1NS(=O)(=O)c1c(C)ccc2nsnc12 | 25.1 µM [falling, partial curve, poor fit]
63 | Cc1ccc(-c2nnc(SCC(=O)O)n2N)cc1 | 25.1 µM [rising, single point]
64 | Cc1[nH]c2ccccc2c1-c1nc2ccccc2[nH]1 | 0.01 µM [falling, full curve, poor fit]
65 | O=C(Nc1c(F)cc(F)cc1Br)c1cc(-c2ccc(O)cc2)on1 | 10 µM [falling, partial curve]
66 | CN(Cc1cnn(C)c1)C(=O)c1cc2ccccc2oc1=O | 0.126 µM [falling, single point]
67 | O=S(=O)(NCCSc1ccccc1)c1cccs1 | 5.01 µM [falling, partial curve]
68 | N#CC1=C(N)N(c2ccccc2)C(c2ccco2)C1(C#N)C#N (stereo not drawn) | 10 µM [rising, single point]
